± gives the uncertainty stated by the source. The uncertainty is large for many entries.
Assay: self-splicing fitness, log relative to wild type (ln ratio); higher = more splicing; Tetrahymena group I intron in knt gene, E. coli kanamycin selection, DiMSum; sequences stand for … in CUCUCU…GGAGGGAAAAGUUAUCAGGCAUGCACCUGGUAGCUAGUCUUUAAACCAAUAGAUUGCAUCGGUUUAAAAGGCAAGACCGUCAAAUUGCGGGAAAGGGGUCAACAGCCGUUCAGUACCAAGUCUCAGGGGAAACUUUGAGAUGGCCUUGCAAAGGGUAUGGUAAUAAGCUGACGGACAUGGUCCUAACCACGCAGCCAAGUCCUAAGUCAACAGAUCUUCUGUUGAUAUGGAUGCAGUUCACAGACUAAAUGUCGGUCGGGGAAGAUGUAUUCUUCUCAUAAGAUAUAGUCGGACCUCUCCUUAAUGGGAGCUAGCGGAUGAAGUGAUGCAACACUGGAGCCGCUGGGAACUAAUUUGUAUGCGAAAGUAUAUUGAUUAGUUUUGGAGUACUCGUGGUCG
Method in brief: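 Colonies from six replicate transformations of E. coli BL21(DE3) were pooled and amplicon-sequenced on an Illumina HiSeq 2500. The library placed an intron with all eight P1ex-region nucleotides randomised inside the knt kanamycin-resistance gene on pET-22b(+), and cells grew overnight at 37°C or 30°C on LB agar with or without 25 μg/mL kanamycin (plus 100 μg/mL carbenicillin, 50 μM IPTG, 0.2% rhamnose). Fitness is the DiMSum error-weighted combination of wild-type-normalised replicate fold changes, kanamycin versus none.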

## ACACAGCAAUAUUACGAUAG
30 °C
  self-splicing fitness (ln): -2.96 ± 0.074
37 °C
  self-splicing fitness (ln): -1.62 ± 0.069

## UCGGAGCAAUAUUACGCUCA
30 °C
  self-splicing fitness (ln): -4 ± 1
37 °C
  self-splicing fitness (ln): -3.99 ± 1

## CAUGAGCAAUAUUACGAAUC
30 °C
  self-splicing fitness (ln): -4.04 ± 0.51

## GUGGAGCAAUAUUACGUACG
30 °C
  self-splicing fitness (ln): -4.29 ± 0.51

## AGGCAGCAAUAUUACGCUUC
30 °C
  self-splicing fitness (ln): -3.75 ± 0.59

## UCCUAGCAAUAUUACGAAUG
30 °C
  self-splicing fitness (ln): -2.58 ± 0.8

## UCAUAGCAAUAUUACGGUUA
30 °C
  self-splicing fitness (ln): -1.37 ± 0.14
37 °C
  self-splicing fitness (ln): -0.36 ± 0.11

## CCUUAGCAAUAUUACGUAUA
30 °C
  self-splicing fitness (ln): -4.45 ± 0.51

## UAGAAGCAAUAUUACGAGUU
30 °C
  self-splicing fitness (ln): -3.6 ± 0.53

## GGAGAGCAAUAUUACGGAGC
30 °C
  self-splicing fitness (ln): -4.88 ± 1
37 °C
  self-splicing fitness (ln): -2.8 ± 0.53

## CGAAAGCAAUAUUACGGGAA
30 °C
  self-splicing fitness (ln): -2.17 ± 0.4
37 °C
  self-splicing fitness (ln): -2.08 ± 0.26

## UGUAAGCAAUAUUACGCUAC
37 °C
  self-splicing fitness (ln): -3.08 ± 0.61

## AGCGAGCAAUAUUACGAAAG
30 °C
  self-splicing fitness (ln): -3.7 ± 0.76

## GAGGAGCAAUAUUACGCAAA
37 °C
  self-splicing fitness (ln): -0.234 ± 1

## AUCAAGCAAUAUUACGAUUU
30 °C
  self-splicing fitness (ln): -0.487 ± 0.056
37 °C
  self-splicing fitness (ln): -0.186 ± 0.072

## GGGUAGCAAUAUUACGAAGC
30 °C
  self-splicing fitness (ln): -1.06 ± 1

## CGUGAGCAAUAUUACGGAAU
30 °C
  self-splicing fitness (ln): -3.53 ± 0.53

## GUUUAGCAAUAUUACGCUAG
30 °C
  self-splicing fitness (ln): -2.38 ± 0.16
37 °C
  self-splicing fitness (ln): -0.42 ± 0.13

## AGUGAGCAAUAUUACGCUAA
30 °C
  self-splicing fitness (ln): -4.02 ± 0.61

## UUUUAGCAAUAUUACGUGCA
30 °C
  self-splicing fitness (ln): -2.12 ± 0.17
37 °C
  self-splicing fitness (ln): -1.11 ± 0.18

## AAGGAGCAAUAUUACGGUCG
37 °C
  self-splicing fitness (ln): -3.3 ± 0.52

## CUAGAGCAAUAUUACGCUAU
30 °C
  self-splicing fitness (ln): -4.4 ± 0.74

## UUGGAGCAAUAUUACGAGCA
30 °C
  self-splicing fitness (ln): -3.18 ± 0.37
37 °C
  self-splicing fitness (ln): -1.74 ± 0.31

## GGAUAGCAAUAUUACGCGGC
30 °C
  self-splicing fitness (ln): -3.57 ± 1
37 °C
  self-splicing fitness (ln): -2.98 ± 0.53

## GACGAGCAAUAUUACGCGGC
37 °C
  self-splicing fitness (ln): -4.49 ± 0.51

## UUGGAGCAAUAUUACGCCUU
30 °C
  self-splicing fitness (ln): -2.65 ± 1.1
37 °C
  self-splicing fitness (ln): -1.67 ± 0.61

## ACGUAGCAAUAUUACGAAUG
30 °C
  self-splicing fitness (ln): -2.89 ± 0.13
37 °C
  self-splicing fitness (ln): -1.53 ± 0.12

## CGUGAGCAAUAUUACGUAAA
30 °C
  self-splicing fitness (ln): -4.01 ± 0.72

## CCCCAGCAAUAUUACGUCCC
37 °C
  self-splicing fitness (ln): -2.3 ± 0.64

## GUUUAGCAAUAUUACGGUGG
30 °C
  self-splicing fitness (ln): -4.14 ± 0.51

## GAUGAGCAAUAUUACGGGAC
30 °C
  self-splicing fitness (ln): -5.03 ± 0.59

## AGAUAGCAAUAUUACGCCAC
30 °C
  self-splicing fitness (ln): -1.49 ± 0.51

## GUGGAGCAAUAUUACGGAAA
37 °C
  self-splicing fitness (ln): -1.36 ± 0.84

## UUAGAGCAAUAUUACGAAAG
30 °C
  self-splicing fitness (ln): -2.9 ± 0.4
37 °C
  self-splicing fitness (ln): -0.494 ± 0.35

## CCUGAGCAAUAUUACGAGCU
30 °C
  self-splicing fitness (ln): -2.86 ± 0.58

## AUUUAGCAAUAUUACGAGUC
30 °C
  self-splicing fitness (ln): -3.56 ± 0.73
37 °C
  self-splicing fitness (ln): -2.01 ± 0.64

## UAGGAGCAAUAUUACGUCUC
37 °C
  self-splicing fitness (ln): -2.28 ± 0.63

## UCAGAGCAAUAUUACGCGUA
30 °C
  self-splicing fitness (ln): -2.57 ± 0.32
37 °C
  self-splicing fitness (ln): -0.569 ± 0.16

## CUGAAGCAAUAUUACGUUCC
30 °C
  self-splicing fitness (ln): -4.8 ± 0.58

## AGUAAGCAAUAUUACGGUUG
30 °C
  self-splicing fitness (ln): -3.09 ± 0.23
37 °C
  self-splicing fitness (ln): -2.51 ± 0.25

## CAUGAGCAAUAUUACGUUUC
37 °C
  self-splicing fitness (ln): -3.56 ± 0.6

## GUUAAGCAAUAUUACGCCAA
37 °C
  self-splicing fitness (ln): -1.02 ± 0.64

## CACAAGCAAUAUUACGUGGU
30 °C
  self-splicing fitness (ln): -4.1 ± 0.17
37 °C
  self-splicing fitness (ln): -2.66 ± 0.19

## GACGAGCAAUAUUACGCAAG
30 °C
  self-splicing fitness (ln): -3.42 ± 1
37 °C
  self-splicing fitness (ln): -1.67 ± 0.68

## UAGGAGCAAUAUUACGAAGU
30 °C
  self-splicing fitness (ln): -4.06 ± 0.59

## GAGGAGCAAUAUUACGUUGU
30 °C
  self-splicing fitness (ln): -4.89 ± 0.51

## GGUCAGCAAUAUUACGAGCC
37 °C
  self-splicing fitness (ln): -2.03 ± 1.1

## UAAUAGCAAUAUUACGGGUA
30 °C
  self-splicing fitness (ln): -1.9 ± 0.17
37 °C
  self-splicing fitness (ln): -0.433 ± 0.14

## UUCUAGCAAUAUUACGUCCC
30 °C
  self-splicing fitness (ln): -2.69 ± 0.81
37 °C
  self-splicing fitness (ln): -1.63 ± 0.73

## CAAGAGCAAUAUUACGCUGA
30 °C
  self-splicing fitness (ln): -2.97 ± 0.19
37 °C
  self-splicing fitness (ln): -2.08 ± 0.21

## AGUGAGCAAUAUUACGCUGA
30 °C
  self-splicing fitness (ln): -3.8 ± 0.6
37 °C
  self-splicing fitness (ln): -3.18 ± 1

## GGUGAGCAAUAUUACGCUUC
30 °C
  self-splicing fitness (ln): -2.77 ± 0.54

## AAUGAGCAAUAUUACGUGCC
37 °C
  self-splicing fitness (ln): -2.4 ± 0.55

## AGAGAGCAAUAUUACGCGCU
37 °C
  self-splicing fitness (ln): -0.983 ± 0.68

## CCCGAGCAAUAUUACGAAUA
30 °C
  self-splicing fitness (ln): -3.44 ± 0.2
37 °C
  self-splicing fitness (ln): -2.89 ± 0.21

## UGGAAGCAAUAUUACGCUCU
30 °C
  self-splicing fitness (ln): -2.95 ± 0.83

## UACGAGCAAUAUUACGCUAC
30 °C
  self-splicing fitness (ln): -3.18 ± 0.5
37 °C
  self-splicing fitness (ln): -1.18 ± 0.92

## GUCGAGCAAUAUUACGAGGG
30 °C
  self-splicing fitness (ln): -2.96 ± 0.51

## CGGAAGCAAUAUUACGGAGA
30 °C
  self-splicing fitness (ln): -3.06 ± 0.53
37 °C
  self-splicing fitness (ln): -4.15 ± 0.51

## GCGAAGCAAUAUUACGGAGU
30 °C
  self-splicing fitness (ln): -3.66 ± 0.2
37 °C
  self-splicing fitness (ln): -3.43 ± 0.42

## CGCGAGCAAUAUUACGCAUU
30 °C
  self-splicing fitness (ln): -2.71 ± 0.18
37 °C
  self-splicing fitness (ln): -3.29 ± 0.35

## CCGGAGCAAUAUUACGGUUC
30 °C
  self-splicing fitness (ln): -3.44 ± 0.6
37 °C
  self-splicing fitness (ln): -1.02 ± 0.59

## GCCUAGCAAUAUUACGAAAC
30 °C
  self-splicing fitness (ln): -3.25 ± 0.51
37 °C
  self-splicing fitness (ln): -1.89 ± 0.56

## UAAUAGCAAUAUUACGACGC
37 °C
  self-splicing fitness (ln): -2.4 ± 0.55

## GAGGAGCAAUAUUACGGCCU
37 °C
  self-splicing fitness (ln): -0.824 ± 0.56

## CGGGAGCAAUAUUACGCAUU
30 °C
  self-splicing fitness (ln): -4.3 ± 0.59
37 °C
  self-splicing fitness (ln): -2.92 ± 0.75

## GGAGAGCAAUAUUACGCCAU
37 °C
  self-splicing fitness (ln): -0.408 ± 0.52

## AAUCAGCAAUAUUACGUUUA
30 °C
  self-splicing fitness (ln): -0.652 ± 0.045
37 °C
  self-splicing fitness (ln): -0.106 ± 0.06

## CGAGAGCAAUAUUACGCGAC
30 °C
  self-splicing fitness (ln): -4.99 ± 0.72
37 °C
  self-splicing fitness (ln): -3.5 ± 0.6

## UGUUAGCAAUAUUACGUAUU
30 °C
  self-splicing fitness (ln): -3.88 ± 0.73

## CGAUAGCAAUAUUACGGCCC
30 °C
  self-splicing fitness (ln): -0.844 ± 1
37 °C
  self-splicing fitness (ln): 0.445 ± 0.86

## GCUGAGCAAUAUUACGAAAU
30 °C
  self-splicing fitness (ln): -3.27 ± 0.2
37 °C
  self-splicing fitness (ln): -2.43 ± 0.22

## CUGGAGCAAUAUUACGUAUC
37 °C
  self-splicing fitness (ln): -3.19 ± 0.53

## AGGAAGCAAUAUUACGGUAU
30 °C
  self-splicing fitness (ln): -2.52 ± 0.28
37 °C
  self-splicing fitness (ln): -0.707 ± 0.24

## CGUAAGCAAUAUUACGAUGC
30 °C
  self-splicing fitness (ln): -3.96 ± 0.6

## CUGGAGCAAUAUUACGCCAA
30 °C
  self-splicing fitness (ln): -2.09 ± 1.4

## UCAGAGCAAUAUUACGCUGC
30 °C
  self-splicing fitness (ln): -3.34 ± 1.1

## GCAGAGCAAUAUUACGCCGA
30 °C
  self-splicing fitness (ln): -3.64 ± 0.63

## UCGGAGCAAUAUUACGUCCC
37 °C
  self-splicing fitness (ln): -2.2 ± 1.1

## UGCAAGCAAUAUUACGACGC
30 °C
  self-splicing fitness (ln): -1.44 ± 0.4
37 °C
  self-splicing fitness (ln): -0.865 ± 0.24

## UUGGAGCAAUAUUACGCCCU
30 °C
  self-splicing fitness (ln): -2.44 ± 1.1

## AAGCAGCAAUAUUACGUGCG
30 °C
  self-splicing fitness (ln): -0.989 ± 0.073
37 °C
  self-splicing fitness (ln): -0.0742 ± 0.092

## CAGAAGCAAUAUUACGCGGC
37 °C
  self-splicing fitness (ln): -2.87 ± 0.61

## CUGCAGCAAUAUUACGCACC
30 °C
  self-splicing fitness (ln): -2.53 ± 0.77
37 °C
  self-splicing fitness (ln): -0.458 ± 0.68

## AAUCAGCAAUAUUACGCCCC
30 °C
  self-splicing fitness (ln): -1.56 ± 0.87
37 °C
  self-splicing fitness (ln): -1.79 ± 1.2

## GAUAAGCAAUAUUACGAGGC
30 °C
  self-splicing fitness (ln): -4.1 ± 1

## ACUUAGCAAUAUUACGACCC
37 °C
  self-splicing fitness (ln): 0.52 ± 0.55

## UUUGAGCAAUAUUACGGAUG
37 °C
  self-splicing fitness (ln): -3.41 ± 0.6

## GACCAGCAAUAUUACGCCGC
37 °C
  self-splicing fitness (ln): -2.41 ± 0.62

## AAGGAGCAAUAUUACGAAAC
30 °C
  self-splicing fitness (ln): -3.26 ± 0.64
37 °C
  self-splicing fitness (ln): -2.48 ± 0.77
